Source: PubChem BioAssay AID504444 (National Center for Advancing Translational Sciences (NCATS), 2011)
Out of some 360,000 compounds screened, about 7,500 (2.1%) were called active. This list was built around the results that the source calls inconclusive (neither active nor inactive); the mix of calls is not that of the screen. Calls follow the shape of the dose curve; as a rule, active = well fitted inhibition curve with a large enough effect; inconclusive = small, poorly fitted or top-dose-only effect, or effect the other way; inactive = flat fitted curve, though single readings scatter. A potency beside an inconclusive call is a rough fit, not a confirmed value.

experiment: Nrf2 qHTS screen for inhibitors; conditions: A549 ARE-Fluc reporter, luciferase luminescence, 18-24 h; series mostly up to 46 µM; also: nearly all actives have a fitted effect of over 60% in size
In short: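 Concentration-response testing used A549 ARE_Fluc cells at 5000 cells/well. Following an 18-24 h compound incubation, viability was read by fluorescence (Ex 405/Em 525) and luciferase output by luminescence.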
Potency is read from the fitted curve at half-maximal effect.

Row | SMILES | Potency
1 | COc1cc(NC(=O)c2noc3c2CCc2ccccc2-3)cc(OC)c1OC | inconclusive: 8.2 µM [falling, partial curve]
2 | Cc1cccc(/C=N/NC(=O)c2cc(C3CC3)nc3ccccc23)n1 | inactive
3 | O=C(Oc1ccc(-c2cn3c(n2)SCC3)cc1)c1ccccc1 | inconclusive: 5.17 µM [activator, partial curve, poor fit]
4 | Cc1nc(-c2ccc([N+](=O)[O-])cc2)c(-c2ccccc2)o1 | inconclusive: 18.4 µM [falling, single point]
5 | CCCN(CCC)C(=O)Cn1c(=O)n(Cc2ccc(C(=O)NCCc3ccc(OC)c(OC)c3)cc2)c(=O)c2ccccc21 | inconclusive: 0.103 µM [falling, full curve, poor fit]
6 | COc1cc(-c2ccc3ncnc(N(C)Cc4csc(C)n4)c3c2)cc(OC)c1OC | inactive
7 | Oc1ccc(-c2nncn2-c2ccccc2)cc1 | inconclusive: 13 µM [falling, partial curve, poor fit]
8 | CCCN(C(=O)c1cc2c(Cl)nc3ccccc3c2s1)c1cccc(C)c1 | inactive
9 | CS(=O)(=O)c1ccc(Cl)c(NC(=O)COC(=O)c2ccc(F)cc2Cl)c1 | active: 11.6 µM
10 | CCOc1cc(CNc2ccc(O)cc2)cc(Br)c1OCc1ccccc1 | inconclusive: 16.4 µM [falling, single point]
11 | Cc1ccc(NC(=O)CNC(=O)C2CCCCC2)nc1 | inactive
12 | Cn1c(-c2ccc(F)cc2)cnc1SCC(=O)N1CCCCC1 | inconclusive: 0.731 µM [activator, full curve, poor fit]
13 | Clc1ccc(-c2noc(CN3CCOCC3)n2)cc1 | inconclusive: 5.17 µM [activator, partial curve]
14 | O=[N+]([O-])c1ccccc1CN1CCN(Cc2ccc3ccccc3c2)CC1 | inactive
15 | Cc1ccc(-c2csc(NC(=O)c3ccc(F)cc3)c2C(=O)O)cc1 | inconclusive: 29.1 µM [falling, single point]
16 | O=C(Cc1cccs1)Nc1ccc2c(c1)C(=O)OC2 | inconclusive: 29.1 µM [falling, single point]
17 | Oc1ccc(N2CCN(Cc3c(-c4ccccc4)nc4ccccn34)CC2)cc1 | inconclusive: 25.9 µM [falling, single point]
18 | CC(CCN(C)C)OC(=O)c1ccc(C(C)c2ccccc2)o1 (stereo unspecified) | inconclusive: 11.6 µM [activator, single point]
19 | Clc1ccccc1Cn1nnc(-c2cccs2)n1 | inconclusive: 29.1 µM [activator, partial curve, poor fit]
20 | COc1ccccc1OC(C)C(=O)Nc1ccc(S(=O)(=O)Nc2nccs2)cc1 (stereo unspecified) | inconclusive: 29.1 µM [falling, single point]
21 | CCOC(=O)c1[nH]c(C)c(CC(C)C)c1C | inconclusive: 32.6 µM [activator, single point]
22 | Cc1ccc(NC(=S)N(CCN(C)C)Cc2cccs2)c(C)c1 | inconclusive: 25.9 µM [activator, partial curve, poor fit]

Row | SMILES | Potency
23 | CN(C(=O)c1ccc(S(=O)(=O)N2CCCCC2)cc1)C1CCS(=O)(=O)C1 (stereo unspecified) | inconclusive: 29.1 µM [activator, partial curve, poor fit]
24 | COc1ccc(C(=O)Nc2ccc3c(c2)OCO3)cc1OC | inconclusive: 18.4 µM [activator, partial curve]
25 | Cc1cc(C)cc(-n2nnc(C(=O)NCc3ccc4c(c3)OCO4)c2N)c1 | inconclusive: 29.1 µM [falling, single point]
26 | CN(C)S(=O)(=O)c1ccc(NC(=O)CN2C(=O)NC3(CCCC3)C2=O)cc1 | inconclusive: 3.66 µM [activator, partial curve, poor fit]
27 | O=C(CSc1nnc(-c2c[nH]c3ccccc23)o1)N1CCCCC1 | inconclusive: 6.51 µM [activator, full curve]
28 | CN(C)S(=O)(=O)Nc1ccc2c(c1)Cc1ccccc1-2 | inconclusive: 16.4 µM [activator, partial curve]
29 | COc1ccc(C(=O)NCC(c2ccccc2)c2ccccc2)cc1S(=O)(=O)N1CCOCC1 | inactive
30 | N#Cc1ccc(CN2CCN(C(=O)CNC(=O)Cc3cccc4ccccc34)CC2)cc1 | active: 5.8 µM
31 | COc1cccc2sc(N3CCN(C(=O)C4COc5ccccc5O4)CC3)nc12 (stereo unspecified) | inconclusive: 29.1 µM [falling, single point]
32 | Cc1nn(Cc2ccccc2Cl)c(C)c1NC(=O)c1noc2c1CCCCC2 | inconclusive: 13 µM [falling, partial curve, poor fit]
33 | NC(=O)CSc1nc2c(c(=O)n1-c1ccccc1)C1(CCCCC1)Cc1ccccc1-2 | inconclusive: 29.1 µM [falling, single point]
34 | CCOC(=O)N/N=C/c1ccc(N(CC)CC)cc1O | inactive
35 | CCOc1ccc2oc(C(=O)NCC(c3ccco3)N(C)C)c(C)c2c1 (stereo unspecified) | inconclusive: 9.2 µM [activator, partial curve]
36 | CC(C)N(C(=O)[C@H]1C[C@H](CC(=O)NC(C)(C)C)C(=O)N2CCc3c([nH]c4ccc(Cl)cc34)[C@]12C)C(C)C | inconclusive: 20.6 µM [falling, single point]
37 | Cc1ccc(N(Cc2ccccc2)C(=O)c2ccc(C)c(S(=O)(=O)N3CCOCC3)c2)cc1 | active: 14.6 µM
38 | O=C(NC1=C(Nc2ccc(Cl)cc2)C(=O)c2ccccc2C1=O)c1ccccc1 | inconclusive: 29.1 µM [falling, single point]
39 | COc1cccc(C2(O)CCN(C(=O)C3CC3)CC2)c1 | inconclusive: 11.6 µM [activator, partial curve, poor fit]
40 | Cc1ccc(NC(=S)NC(=O)C2CC2)cc1Cl | inconclusive: 0.58 µM [activator, full curve, poor fit]
41 | Cc1ccc(C)c(OCc2ccc(C(=O)Nc3ccc([N+](=O)[O-])cn3)o2)c1 | active: 2.91 µM
42 | Cc1cc(N2CCN(c3ccccn3)CC2)n2c(nc3ccccc32)c1C#N | inconclusive: 25.9 µM [activator, partial curve, poor fit]
43 | CNC(=O)C(=O)Nc1c(O)c2ccccc2[nH]c1=O | inconclusive: 16.4 µM [activator, partial curve, poor fit]
44 | CCc1ccc2c(CN3CCOCC3)cc(=O)oc2c1 | inconclusive: 6.51 µM [activator, full curve]

Row | SMILES | Potency
45 | CCc1ccc(NC(=S)/N=C(\N)Nc2nc(C)c3cc(CC)ccc3n2)cc1 | inactive
46 | CC(C)c1ccc(NC(=O)C2CCCCN2S(=O)(=O)c2ccccc2)cc1 (stereo unspecified) | inconclusive: 32.6 µM [falling, single point]
47 | COc1ccccc1Oc1coc2cc(OC(=O)N3CCOCC3)ccc2c1=O | inactive
48 | Cc1ccc(-c2cn3c(n2)sc2cc(C(=O)N4CCCCC4)ccc23)cc1 | inactive
49 | O=C(NCCCn1ccnc1)C(=O)NCC1OCCN1S(=O)(=O)c1ccccc1 (stereo unspecified) | inconclusive: 16.4 µM [falling, partial curve]
50 | Cc1n[nH]c(=S)n1/N=C/c1ccc(OCc2ccc(Cl)cc2)cc1 | inactive
51 | Cc1cc(-c2ccccc2)nc(N/N=C/c2ccc([N+](=O)[O-])cc2)n1 | inconclusive: 29.1 µM [falling, single point]
52 | O=C1C(Cl)=C(NCc2cccnc2)C(=O)c2ccccc21 | inconclusive: 29.1 µM [falling, single point]
53 | O=[N+]([O-])c1ccc2nc(-c3ccccn3)[nH]c2c1 | inconclusive: 5.8 µM [activator, full curve, poor fit]
54 | Cc1c(S(=O)(=O)NCc2ccccc2)c(=O)n(C)c(=O)n1C | inconclusive: 0.731 µM [falling, full curve, poor fit]
55 | O=C(CSc1ccc(-c2ccco2)nn1)Nc1cccc(F)c1 | inconclusive: 29.1 µM [falling, single point]
56 | O=C(OCC1COc2ccccc2O1)c1c(F)cccc1F (stereo unspecified) | inconclusive: 29.1 µM [activator, single point]
57 | Cc1ccc(OCc2ccccc2Br)c([N+](=O)[O-])n1 | inconclusive: 29.1 µM [activator, single point]
58 | Cc1ccc(-c2nc(C)c(C(=O)O)s2)cc1 | inconclusive: 9.2 µM [activator, partial curve]
59 | COc1ccc(S(=O)(=O)Nc2ccc3c(c2)N(C(C)=O)CCC3)cc1 | active: 11.6 µM
60 | Cc1nc2ccccc2c2oc(C(=O)NCCCN3CCCC(C)C3)cc12 (stereo unspecified) | inconclusive: 20.6 µM [falling, single point]
61 | CCc1ccccc1NC(=O)CSc1nnc([C@@H]2CCCN2C(=O)OC(C)(C)C)o1 | inconclusive: 4.11 µM [activator, full curve, poor fit]
62 | O=C(Nc1ccc(COc2ccccc2)cc1)Nc1cccc(C(=O)O)c1 | inconclusive: 29.1 µM [activator, single point]
63 | CC(C)Oc1ccc(C(=O)NCCCNC(=O)c2ccccn2)cc1 | inconclusive: 20.6 µM [falling, single point]
64 | Cc1c(CCC(=O)O)c(=O)oc2c(C)c3occ(-c4ccc(Cl)cc4)c3cc12 | inconclusive: 13 µM [falling, single point]
65 | O=C(NC(=S)Nc1cccc([N+](=O)[O-])c1)c1ccccc1 | inconclusive: 13 µM [activator, partial curve]
66 | COc1ccc(C(=O)Cn2cnc3ccccc3c2=O)cc1 | inconclusive: 6.51 µM [activator, single point]

A stretch from further up:
Row | SMILES | Potency
34 | CCOC(=O)N/N=C/c1ccc(N(CC)CC)cc1O | inactive
35 | CCOc1ccc2oc(C(=O)NCC(c3ccco3)N(C)C)c(C)c2c1 (stereo unspecified) | inconclusive: 9.2 µM [activator, partial curve]
36 | CC(C)N(C(=O)[C@H]1C[C@H](CC(=O)NC(C)(C)C)C(=O)N2CCc3c([nH]c4ccc(Cl)cc34)[C@]12C)C(C)C | inconclusive: 20.6 µM [falling, single point]
